Measurements published in PubChem BioAssay AID2685 (National Center for Advancing Translational Sciences (NCATS), 2010).
This is one part of the list. These are further read-outs of the screen, such as a control signal, another cell line or another target. No call is given for them. Compounds called inactive in the main read-out are mostly missing here. Potencies come from curve fits of mixed quality, noted in brackets.

Test: qHTS Assay for Lipid Storage Modulators in Drosophila S3 Cells;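 for cell number change: cells counted by Cell Tracker Red CMTPX staining in the red channel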
Conditions: BODIPY lipid droplet fluorescence, 18-24 h; for cell number change: measured here: cell count max response, cells fed with added oleic acid
Method in brief: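 Drosophila S3 cells loaded with oleic acid (400 uM, as added) and compounds at several concentrations; lipid droplets imaged by 488-nm laser-scanning cytometry, 500–530 nm intensity and object ratio to cell channel. Percent activity normalized to 20 uM Triacsin C.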

[1] = measured here: lipid fluorescence (Fed channel) AC50, cells fed with added oleic acid
[2] = measured here: cell number channel AC50, cells fed with added oleic acid

## COc1ccc(N(CC(=O)Nc2ccccc2C(=O)N2CCCC2)S(C)(=O)=O)cc1
  cell number change: 22.5%
[1]
  AC50: 580 nM [rising, single point]

## O=C(CCc1nc2sc3c(c2c(=O)[nH]1)CCCC3)NCCc1ccccc1
  cell number change: 0.534%
[1]
  AC50: 116 nM [falling, full curve, poor fit]

## CCCC(C)C(=O)NCc1ccncc1 (centres undefined)
  cell number change: -13.7%

## CCOc1ccc(-c2[nH]ncc2Oc2cccc(OC)c2)c(O)c1
  cell number change: -72.3%
[2]
  AC50: 23100 nM [falling, single point]
[1]
  AC50: 3660 nM [falling, full curve]

## COC(=O)c1cccnc1-n1c(=O)c2cccnc2n(Cc2ccc([N+](=O)[O-])cc2)c1=O
  cell number change: -0.913%
[2]
  AC50: 4.61 nM [falling, full curve, poor fit]
[1]
  AC50: 4.61 nM [falling, full curve, poor fit]

## C#CCOC(=O)/C(=C/C=C/c1ccccc1)NC(=O)c1ccccc1
[1]
  AC50: 146 nM [rising, full curve, poor fit]

## COC(=O)C(NC(C)=O)(Nc1sc2c(c1C(N)=O)CCCC2)C(F)(F)F (centres undefined)
  cell number change: 35.6%
[2]
  AC50: 29100 nM [rising, single point]
[1]
  AC50: 580 nM [rising, single point]

## CNC(=O)NC(=O)C(OC(=O)Cc1cccc(C(F)(F)F)c1)c1ccccc1 (centres undefined)
  cell number change: 2.94%
[1]
  AC50: 29100 nM [rising, single point]

## O=C(NCC(=O)N1CCN(c2ccccc2O)CC1)c1ccc2ccccc2c1
  cell number change: 7.92%
[2]
  AC50: 7.31 nM [rising, full curve, poor fit]

## COC(=O)C1=C(C)N(c2ccccc2)C(=S)NC1c1ccccc1C(F)(F)F (centres undefined)
  cell number change: 20.3%
[2]
  AC50: 2910 nM [rising, single point]

## CC(=NCC1CCCO1)c1c(O)[nH]c(=O)[nH]c1=O (centres undefined)
  cell number change: 0.782%
[1]
  AC50: 20600 nM [falling, partial curve]

## CCOC(=O)CSC1=C(C#N)C(c2ccccc2OC)CC(=O)N1 (centres undefined)
  cell number change: -34.9%
[2]
  AC50: 1840 nM [falling, full curve]
[1]
  AC50: 2060 nM [falling, full curve]

## Cc1ccc(C(=O)Nc2ccccc2NC(=O)c2ccc(C)o2)o1
  cell number change: -7.28%

## CC(C)N1CCc2c(sc(NC(=O)c3cc(-c4cccs4)nc4ccccc34)c2C(N)=O)C1
  cell number change: 23.6%
[1]
  AC50: 6510 nM [falling, partial curve]

## CCOc1ccc(CN2CCN(C3CCC3)CC2CCO)cc1 (centres undefined)
  cell number change: 4.69%
[1]
  AC50: 130 nM [falling, full curve, poor fit]

## C(=C\c1nc(N2CCCCCC2)c2ccccc2n1)/c1ccccc1
  cell number change: -38.8%
[2]
  AC50: 18400 nM [falling, single point]
[1]
  AC50: 16400 nM [falling, single point]
